From article PMC12431657, “Discovery and mechanistic insights of dibenzoylmethane as a broad spectrum inhibitor of coronavirus” (PLOS Pathogens, 2025)
Structures can show the parent of a compound that is named as a salt. Where two headings read alike, the source gives them in different places. The whole screen tested about 3,300 compounds, of which about 60 (2%) showed an effect of 50% or more. The list shows a part of the results.

Tested on: HCoV-OC43
Parameters: species or system RD; HTS, protection from HCoV-OC43 induced cell death, luminescent cell viability (CellCounting-Lite 2.0), inhibition rate
Details: 24 h post infection, 1 h compound pre-incubation, 10 µM, inhibitor

| Structure (SMILES) | OC43 Inhibition rate (OC43 Inhibition rate, 24 h) [%] | OC43 Inhibition rate [%] |
| --- | --- | --- |
| C=C[C@H]1CN2CC[C@H]1C[C@@H]2[C@@H](O)c1ccnc2ccc(OC)cc12 [Quinidine hydrochloride monohydrate] | 1 |  |
| O=C(O)C1=CO[C@@H](O[C@@H]2O[C@H](CO)[C@@H](O)[C@H](O)[C@H]2O)[C@H]2[C@@H]1C=C[C@]2(O)CO [Monotropein] |  | 0.5 |
| C[C@@H]1O[C@@H](O[C@H]2[C@H](OC(=O)[C@]34CCC(C)(C)C[C@H]3C3=CC[C@@H]5[C@@]6(C)C[C@H](O)[C@H](O[C@@H]7O[C@H](CO)[C@@H](O)[C@H](O)[C@H]7O)C(CO)(CO)[C@@H]6CC[C@@]5(C)[C@]3(C)C[C@H]4O)OC[C@H](O)[C@@H]2O)[C@H](O)[C@H](O)[C@H]1O[C@@H]1OC[C@@H](O)[C@H](O[C@@H]2OC[C@](O)(CO)[C@H]2O)[C@H]1O [Platycodin D] |  | 11.1 |
| CCCCCCCCCCCCCCC(=O)O [Pentadecanoic acid] |  | -0.1 |
| COc1ccc(CCO[C@@H]2O[C@H](CO[C@@H]3OC[C@H](O)[C@H](O)[C@H]3O)[C@@H](OC(=O)/C=C/c3ccc(O)c(OC)c3)[C@H](O[C@@H]3O[C@@H](C)[C@H](O)[C@@H](O)[C@H]3O)[C@H]2O)cc1O [Angoroside C] |  | 0.2 |
| COc1ccc2cc1Oc1ccc(cc1)C[C@H]1c3c(cc4c(c3Oc3cc5c(cc3OC)CCN(C)[C@@H]5C2)OCO4)CCN1C [Cepharanthine] |  | -0.2 |
| COc1cc(C(O)C(=O)O)ccc1O (stereo not drawn) [Vanillylmandelic acid] |  | -1.7 |
| CCC/C=C1\OC(=O)C2=C1CC[C@H](O)[C@H]2O [Senkyunolide I] |  | -0.4 |
| OC[C@H]1O[C@@H](Oc2cc3c(O)cc(O)cc3[o+]c2-c2ccc(O)c(O)c2)[C@H](O)[C@@H](O)[C@@H]1O [Kuromanin (chloride)] |  | -1.3 |
| C[N+](C)(C)CC(O)CC(=O)O (racemic) [(±)-Carnitine (chloride)] |  | 4.8 |
| O=C1C[C@@H](C(=O)O)NC(=O)N1 [L-Dihydroorotic acid] |  | -1.6 |
| COc1ccc(CC(=O)c2ccc(O)cc2O)cc1 [Ononetin] |  | -0.5 |
| c1cn[nH]c1 [1H-pyrazole] |  | -0.2 |
| Nc1nc(=O)c2c([nH]1)NCC(CNc1ccc(C(=O)N[C@@H](CCC(=O)O)C(=O)O)cc1)=N2 [Dihydrofolic acid] |  | -0.3 |
| Cc1ccc(C(=O)O)cc1C [3,4-Dimethylbenzoic acid] |  | 0.5 |
| O=C(O)C(=O)O [Oxalic acid dihydrate] | -0.6 |  |
| COc1ccc(-c2coc3cc(O)cc(O)c3c2=O)cc1 [Biochanin A] |  | -0.7 |
| O=C(/C=C/C=C/c1ccccc1)CCc1ccccc1 [Alnustone] |  | 1.1 |

| Structure (SMILES) | OC43 Inhibition rate (OC43 Inhibition rate, 24 h) [%] | OC43 Inhibition rate [%] |
| --- | --- | --- |
| CC(C)=CCOc1ccc2ccc(=O)oc2c1 [7-Prenyloxycoumarin] |  | 0 |
| COC1=CC(=O)C[C@@H](C)[C@]12Oc1c(Cl)c(OC)cc(OC)c1C2=O [Griseofulvin] |  | 0.1 |
| Oc1cccc(O)c1O [Pyrogallol] |  | -1.9 |
| CC(C)=CCC[C@](C)(O[C@@H]1O[C@H](CO[C@@H]2O[C@H](CO)[C@@H](O)[C@H](O)[C@H]2O)[C@@H](O)[C@H](O)[C@H]1O)[C@H]1CC[C@]2(C)[C@@H]1[C@H](O)C[C@@H]1[C@@]3(C)CC[C@H](O[C@@H]4O[C@H](CO)[C@@H](O)[C@H](O)[C@H]4O)C(C)(C)[C@@H]3CC[C@]12C [Gypenoside XVII] |  | -0.5 |
| NC(N)=NCCCC(N)C(=O)O (racemic) [DL-Arginine] |  | 5 |
| CC(=O)NCCCC(=O)O [4-Acetamidobutanoic acid] |  | 1 |
| O=c1[nH]c2ccccc2o1 [2-Benzoxazolinone] |  | 0.6 |
| C[C@@H]1O[C@@H](O[C@H]2[C@H](O)[C@@H](O)[C@H](O[C@H]3CC[C@]4(C)[C@H]5CC=C6[C@@H]7CC(C)(C)CC[C@]7(CO)[C@@H](O)C[C@@]6(C)[C@]5(C)CC[C@H]4C3(C)C)O[C@@H]2CO[C@@H]2O[C@H](CO)[C@@H](O)[C@H](O)[C@H]2O)[C@H](O)[C@H](O)[C@H]1O [Saikosaponin F] |  | -1.1 |
| C[C@H]1O[C@@H](O[C@H]2CC[C@]3(C)[C@H]4C=C[C@]56OC[C@@]7(CCC(C)(C)C[C@H]75)[C@@H](O)C[C@@]6(C)[C@]4(C)CC[C@H]3C2(C)C)[C@H](O)[C@@H](O[C@@H]2O[C@H](CO)[C@@H](O)[C@H](O)[C@H]2O)[C@H]1O [Saikosaponin E] |  | 7.1 |
| CC(C)=CC[C@@H](OC(=O)C=C(C)C)C1=CC(=O)c2c(O)ccc(O)c2C1=O [β,β-Dimethylacrylshikonin] |  | -0.4 |
| C[C@]1(O)C[C@@H](O)[C@]2(O)C=CO[C@@H](O[C@H]3O[C@H](CO)[C@@H](O)[C@H](O)[C@H]3O)[C@@H]21 [Harpagide] |  | 1.1 |
| CC(C)=CCC1C(=O)C(C(=O)CC(C)C)=C(O)C(O)(CC=C(C)C)C1=O (stereo not drawn) [Humulone] |  | -1 |
| O=C(/C=C/c1ccc(O)c(O)c1/C=C/c1ccc(O)c(O)c1)O[C@H](Cc1ccc(O)c(O)c1)C(=O)O [Salvianolic acid A] |  | 1.3 |
| O=C(CO)[C@@H](O)[C@H](O)[C@H](O)CO [D-Fructose] | -0.1 |  |
| CC1(C)CC[C@]2(C(=O)O)[C@H](O)C[C@]3(C)C(=CC[C@@H]4[C@@]5(C)C[C@H](O)[C@H](O[C@@H]6O[C@H](CO)[C@@H](O)[C@H](O)[C@H]6O)C(CO)(CO)[C@@H]5CC[C@]43C)[C@@H]2C1 [3-O-Beta-D-Glucopyranosylplatycodigenin] |  | -0.3 |
| COc1cc2c[n+](C)c3c4cc5c(cc4ccc3c2cc1OC)OCO5 [Nitidine (chloride)] |  | -0.2 |
| NCCC(=O)O [β-Alanine] |  | -3.6 |
| CC(=O)Cc1cc(=O)c2c(C)cc(O)c([C@@H]3O[C@H](CO)[C@@H](O)[C@H](O)[C@H]3O)c2o1 [Aloesin] |  | -0.5 |
